In this assay the test system is C. albicans. Briefly: MIC. Type of assay: cell-based, Candida albicans.

Each structure is given as a SMILES string. Values after ≈ are worked out from the molar mass of the structure shown.

In general, MIC refers to the smallest concentration in the dilution series that meets the test's criterion for growth inhibition. High values mean weaker potency, low ones greater potency.

As for `C[C@@H]1[C@H](O)[C@@H](C)/C=C/C=C/C=C/C=C/C=C/C=C/C=C/[C@H](O[C@@H]2O[C@H](C)[C@@H](O)[C@H](N)[C@@H]2O)C[C@@H]2O[C@](O)(C[C@@H](O)C[C@@H](O)[C@H](O)CC[C@@H](O)C[C@@H](O)CC(=O)O[C@H]1C)C[C@H](O)[C@H]2C(=O)O` [amphotericin B], the MIC came out at 1 µg/mL (≈ 1.08 µM).

These data come from US20100130450A1, “Methods of Treating Fungal Infections” (NORTHEASTERN UNIVERSITY, priority 2007, published 2010).
